Assay results taken from article doi:10.1101/2021.12.17.472994.
Results are given in words; binding and its absence hold for the method and conditions named. Some entries that bind do so weakly or less than the wild type.

Target: T1, PATZ2 BTB domain (human), O43167
T1 chain: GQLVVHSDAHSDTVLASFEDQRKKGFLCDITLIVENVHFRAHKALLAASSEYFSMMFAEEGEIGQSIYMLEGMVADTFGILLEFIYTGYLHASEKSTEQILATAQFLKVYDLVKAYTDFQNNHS
Assay: two-hybrid
Conditions: remark: other sources report otherwise

B1: PATZ2 BTB domain, O43167 10-133 (domain or fragment)
chain: GQLVVHSDAHSDTVLASFEDQRKKGFLCDITLIVENVHFRAHKALLAASSEYFSMMFAEEGEIGQSIYMLEGMVADTFGILLEFIYTGYLHASEKSTEQILATAQFLKVYDLVKAYTDFQNNHS
binding: binds
